Results reported in publication PMC3277888.
These are yes or no findings as the source states them, for the method shown. In cells and extracts the contact can be indirect. Some results given as binding are weak or reduced against the parent protein; the word gives no strength. For part of these data: Sequences can lack the tags named with a protein. Each block holds one binder with its values, some of them ahead of it.

Legend:
[1] = biological target: T1, MBP-Kip3 (S. cerevisiae), P53086; test: pull-down; MBP-Kip3 or MBP alone immobilized on amylose beads, incubated with yeast extract from STU2-HA and BIK1-HA cells; bound HA-tagged proteins detected by western blot; also done with nocodazole added to cell culture and binding reaction; only the target purified; conditions: remark: other sources report otherwise
T1 chain: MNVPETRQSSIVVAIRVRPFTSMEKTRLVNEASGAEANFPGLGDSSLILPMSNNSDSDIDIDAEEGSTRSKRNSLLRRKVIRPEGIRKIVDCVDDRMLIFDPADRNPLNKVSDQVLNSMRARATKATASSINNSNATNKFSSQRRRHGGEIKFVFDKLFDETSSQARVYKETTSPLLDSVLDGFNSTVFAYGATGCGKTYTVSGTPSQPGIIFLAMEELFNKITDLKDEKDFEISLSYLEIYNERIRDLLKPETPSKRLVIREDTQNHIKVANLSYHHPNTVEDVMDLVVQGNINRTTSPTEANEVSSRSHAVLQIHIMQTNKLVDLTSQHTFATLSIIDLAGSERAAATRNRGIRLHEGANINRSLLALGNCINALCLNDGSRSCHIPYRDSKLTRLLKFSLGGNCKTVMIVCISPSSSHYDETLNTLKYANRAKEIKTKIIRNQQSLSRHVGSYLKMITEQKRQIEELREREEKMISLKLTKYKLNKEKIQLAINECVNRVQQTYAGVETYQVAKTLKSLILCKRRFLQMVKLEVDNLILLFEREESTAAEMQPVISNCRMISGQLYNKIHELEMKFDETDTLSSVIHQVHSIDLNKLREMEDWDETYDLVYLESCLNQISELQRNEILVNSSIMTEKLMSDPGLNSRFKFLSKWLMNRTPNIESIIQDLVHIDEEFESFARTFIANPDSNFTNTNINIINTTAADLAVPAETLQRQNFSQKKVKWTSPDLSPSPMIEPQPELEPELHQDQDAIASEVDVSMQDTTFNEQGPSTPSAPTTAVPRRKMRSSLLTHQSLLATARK

Kip3-VC (S. cerevisiae) = biological target: T2, Kip3-VC (S. cerevisiae) (UniProt P53086); test: split reporter; BiFC in living S. cerevisiae cells (engineered CEN3 reactivation assay); Stu2-VN and Kip3-VC; Venus signal imaged every 7 s in the YFP channel
T2 sequence: T1 chain

MBP-Kip3 (S. cerevisiae) = biological target: T3, MBP-Kip3 (S. cerevisiae) (UniProt P53086); test: pull-down; MBP-Kip3 or MBP alone immobilized on amylose beads, incubated with yeast extract from STU2-HA and BIK1-HA cells; bound HA-tagged proteins detected by western blot; also done with nocodazole added to cell culture and binding reaction; only the target purified
T3 sequence: T1 chain

binding [1]: no binding
B1: Bik1-HA, P11709 1-440 (protein)
chain: MDRYQRKIGCFIQIPNLGRGQLKYVGPVDTKAGMFAGVDLLANIGKNDGSFMGKKYFQTEYPQSGLFIQLQKVASLIEKASISQTSRRTTMEPLSIPKNRSIVRLTNQFSPMDDPKSPTPMRSFRITSRHSGNQQSMDQEASDHHQQQEFGYDNREDRMEVDSILSSDRKANHNTTSDWKPDNGHMNDLNSSEVTIELREAQLTIEKLQRKQLHYKRLLDDQRMVLEEVQPTFDRYEATIQEREKEIDHLKQQLELERRQQAKQKQFFDAENEQLLAVVSQLHEEIKENEERNLSHNQPTGANEDVELLKKQLEQLRNIEDQFELHKTKWAKEREQLKMHNDSLSKEYQNLSKELFLTKPQDSSSEEVASLTKKLEEANEKIKQLEQAQAQTAVESLPIFDPPAPVDTTAGRQQWCEHCDTMGHNTAECPHHNPDNQQFF

binding (Kip3-VC (S. cerevisiae)): binds
B2: Stu2-VN (protein, UniProt P46675 1-888)
chain: MSGEEEVDYTTLPLEERLTYKLWKARLEAYKELNQLFRNSVGDISRDDNIQIYWRDPTLFAQYITDSNVVAQEQAIVALNSLIDAFASSSLKNAHNITLISTWTPLLVEKGLTSSRATTKTQSMSCILSLCGLDTSITQSVELVIPFFEKKLPKLIAAAANCVYELMAAFGLTNVNVQTFLPELLKHVPQLAGHGDRNVRSQTMNLIVEIYKVTGNNSDLLEEILFKKLKPIQVKDLHKLFAKVGDEPSSSKMLFEWEKRELEKKRSQEEEARKRKSILSNDEGEYQIDKDGDTLMGMETDMPPSKQQSGVQIDTFSMLPEETILDKLPKDFQERITSSKWKDRVEALEEFWDSVLSQTKKLKSTSQNYSNLLGIYGHIIQKDANIQAVALAAQSVELICDKLKTPGFSKDYVSLVFTPLLDRTKEKKPSVIEAIRKALLTICKYYDPLASSGRNEDMLKDILEHMKHKTPQIRMECTQLFNASMKEEKDGYSTLQRYLKDEVVPIVIQIVNDTQPAIRTIGFESFAILIKIFGMNTFVKTLEHLDNLKRKKIEETVKTLPNFSIASGSTHSTIETNKQTGPMENKFLLKKSSVLPSKRVASSPLRNDNKSKVNPIGSVASASKPSMVAANNKSRVLLTSKSLATPKNVVANSTDKNEKLIEEYKYRLQKLQNDEMIWTKERQSLLEKMNNTENYKIEMIKENEMLREQLKEAQSKLNEKNIQLRSKEIDVNKLSDRVLSLENELRNMEIELDRNKKRNDTNLQSMGTISSYSIPSSTVSSNYGVKSLSSALPFKEEEDVRRKEDVNYERRSSESIGDLPHRVNSLNIRPYRKNGTGVSSVSDDLDIDFNDSFASEESYKRAAAVTSTLKARIEKMKAKSRREGTTRT

binding (MBP-Kip3 (S. cerevisiae)): binds weakly
B3: Stu2-HA (protein, UniProt P46675 1-888)
chain: B2 chain
